In article PMC10620153, “ARF1 prevents aberrant type I interferon induction by regulating STING activation and recycling” (Nature Communications, 2023):
These are yes or no findings as the source states them, for the method shown. Binding seen in cells or lysates may run through a third protein. Some entries that bind do so weakly or less than the wild type. One block for each molecule: values may come before it.

By UniProt entry, the sequences of proteins in these tests, tags left out. Where a name states a change or a piece, a line headed by the entry shows the natural chain unless it says otherwise.
UniProt P84077: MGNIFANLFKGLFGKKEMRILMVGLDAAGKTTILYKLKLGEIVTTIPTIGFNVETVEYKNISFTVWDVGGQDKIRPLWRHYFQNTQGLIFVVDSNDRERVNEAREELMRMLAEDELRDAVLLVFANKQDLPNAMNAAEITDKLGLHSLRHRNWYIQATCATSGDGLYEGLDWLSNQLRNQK

How the values were obtained:
[1] = biological target: human ARF1 R99C, myc-FLAG tagged (pCMV6-hARF1-R99C-myc-FLAG) (human) (UniProt P84077); test: co-IP; dimerization assay: HEK293T co-transfected with ARF1-myc-FLAG and ARF1-Tag-RFP (both WT or both R99C); lysates on anti-FLAG M2 magnetic beads 4 h at 4 °C; five washes with transmembrane lysis buffer; immunoblot
[2] = biological target: human ARF1 wild type, myc-FLAG tagged (pCMV6-hARF1-myc-FLAG) (human) (UniProt P84077); test: as above
[3] = biological target: human ARF1 R99C, myc-FLAG tagged (pCMV6-hARF1-R99C-myc-FLAG) (human) (UniProt P84077); test: co-IP; HEK293T lysates 48 h after transfection with FLAG-ARF1 WT, R99C or vector; anti-FLAG M2 magnetic beads 4 h at 4 °C; five washes with transmembrane lysis buffer (300 mM salt); blot with anti-COPB
[4] = biological target: human ARF1 wild type, myc-FLAG tagged (pCMV6-hARF1-myc-FLAG) (human) (UniProt P84077); test: as above

- binding [1]: binds
Molecule: human ARF1 R99C, myc-FLAG tagged (pCMV6-hARF1-R99C-myc-FLAG) (from UniProt P84077 1-181)

- binding [2]: binds
Molecule: human ARF1 wild type, myc-FLAG tagged (pCMV6-hARF1-myc-FLAG) (from UniProt P84077 1-181)

- binding [3]: binds
- binding [4]: binds
B1: COPB1 (natural protein, human (endogenous in HEK293T), UniProt P53618 1-953, looked up)
chain: MTAAENVCYTLINVPMDSEPPSEISLKNDLEKGDVKSKTEALKKVIIMILNGEKLPGLLMTIIRFVLPLQDHTIKKLLLVFWEIVPKTTPDGRLLHEMILVCDAYRKDLQHPNEFIRGSTLRFLCKLKEAELLEPLMPAIRACLEHRHSYVRRNAVLAIYTIYRNFEHLIPDAPELIHDFLVNEKDASCKRNAFMMLIHADQDRALDYLSTCIDQVQTFGDILQLVIVELIYKVCHANPSERARFIRCIYNLLQSSSPAVKYEAAGTLVTLSSAPTAIKAAAQCYIDLIIKESDNNVKLIVLDRLIELKEHPAHERVLQDLVMDILRVLSTPDLEVRKKTLQLALDLVSSRNVEELVIVLKKEVIKTNNVSEHEDTDKYRQLLVRTLHSCSVRFPDMAANVIPVLMEFLSDNNEAAAADVLEFVREAIQRFDNLRMLIVEKMLEVFHAIKSVKIYRGALWILGEYCSTKEDIQSVMTEIRRSLGEIPIVESEIKKEAGELKPEEEITVGPVQKLVTEMGTYATQSALSSSRPTKKEEDRPPLRGFLLDGDFFVAASLATTLTKIALRYVALVQEKKKQNSFVAEAMLLMATILHLGKSSLPKKPITDDDVDRISLCLKVLSECSPLMNDIFNKECRQSLSHMLSAKLEEEKLSQKKESEKRNVTVQPDDPISFMQLTAKNEMNCKEDQFQLSLLAAMGNTQRKEAADPLASKLNKVTQLTGFSDPVYAEAYVHVNQYDIVLDVLVVNQTSDTLQNCTLELATLGDLKLVEKPSPLTLAPHDFANIKANVKVASTENGIIFGNIVYDVSGAASDRNCVVLSDIHIDIMDYIQPATCTDAEFRQMWAEFEWENKVTVNTNMVDLNDYLQHILKSTNMKCLTPEKALSGYCGFMAANLYARSIFGEDALANVSIEKPIHQGPDAAVTGHIRIRAKSQGMALSLGDKINLSQKKTSI
notes: Coatomer subunit beta (COPB1), component of the COPI complex, endogenous in HEK293T cells; detected in the co-IP with anti-COPB (Abcam Ab2899); The co-IP names the protein only as COPB; also called beta-COP; source: endogenous, HEK293T lysate
